Reference: patent US20080105961A1, “Ligands of the Molecule Fit (Agt-121) and their Pharmaceutical Use” (priority 2004, published 2008)

B1: FIT-PR (FIT proline-rich region), yeast two-hybrid bait (other, not shown: small tags and cut ends)
chain: RPFPTGTPPPLPPKTVPATPPRTGSPLTVATGNDQAATEAKIEKPPSISDLDSIFGPVLSPKSVAVNTEETWVHFSDASPEHVTPELTPREKVVTPPAASDIPADSPTPGPPGPPGSAGPPGPPGPRNVPSPLNLEEVQKKVAEQTFIKDDYLETLSSPKECGLGQRATPPPPPPPTYRTVVSSPGPGSGSGTGTASGASSPARPATPLVPCSCSTPPPPPPRPPSRPKLPPGKPGVGDVSRPFSPPIHSSSPPPIAPL
notes: Truncated fragment of FIT used as bait in a yeast two-hybrid screen of a human brain cDNA library; also called AGT-121
B2: FIT-NP (FIT N-terminal plus proline-rich region), yeast two-hybrid bait (other, not shown: small tags and cut ends)
chain: MMEGLKKRTRKAFGIRKKEKDTDSTGSPDRDGMQPSPHELPYHSKAECAREGGKKASKKSNGAPNGFYAEIDWERYNSPELDEEGYSIRPEEPGSTKGKHFYSSSESEEEEESHKKFNIKIKPLQSKDILKNAATVDELKASIGNIALSPSPVRKSPRRSPGAIKRNLSSEEVARPRRSTPTPELTSKKPLDDTLALAPLFGPPLESAFDGHKTEVLLDQPEIWGSGQPVNPSMESPKLARPFPTGTPPPLPPKTVPATPPRTGSPLTVATGNDQAATEAKIEKPPSISDLDSIFGPVLSPKSVAVNTEETWVHFSDASPEHVTPELTPREKVVTPPAASDIPADSPTPGPPGPPGSAGPPGPPGPRNVPSPLNLEEVQKKVAEQTFIKDDYLETLSSPKECGLGQRETPPPPPPPTYRTVVSSPGPGSGSGTGTASGASSPARPATPLVPCSCSTPPPPPPRPPSRPKLPPGKPGVGDVSRPFSPPIHSSSPPPIAPL
notes: as for B1

Legend:
[1] = target: D. melanogaster transcription factor CG4654-PB (D. melanogaster); experiment: yeast two-hybrid screen of a human brain cDNA library (1 clone)
Polyubiquitin C (human) = experiment: yeast two-hybrid screen of a human brain cDNA library (3 clones)

Row | Binder | binding [1] | binding (Polyubiquitin C (human))
1 | B1 | binds | 
2 | B2 |  | binds

Results are given in words; binding and its absence hold for the method and conditions named. A result given as binding can be weak or reduced; the word gives no strength.
